Measured values published in US20260256792A1, “TREATMENT OF CHRONIC SPONTANEOUS URTICARIA BY ADMINISTERING (R)-2-[3-[4-AMINO-3-(2-FLUORO-4-PHENOXY-PHENYL)PYRAZOLO[3,4-D]PYRIMIDIN-1-YL]PIPERIDINE-1-CARBONYL]-4-METHYL-4-[4-(OXETAN-3-YL)PIPERAZIN-1-YL]PENT-2-ENENITRILE” (priority 2023, published 2026).
Further values from the same series stand in other lists.

Test system: moderate-to-severe chronic spontaneous urticaria (CSU)
Assay: Phase 2 CSU study: itch severity score over 7 days (ISS7)
Format: in vivo, human
Conditions: Omalizumab-Naïve
Source text: The study comprises a 12 week, randomized, double-blind, placebo-controlled, multi-center, dose-ranging efficacy and safety phase, followed by a 40 week open label extension (OLE) phase (see FIG. 1). The study consists of three phases and an optional OLE phase. […] Clinically, CSU is characterized by the spontaneous and recurrent appearance of pruritic hives. The proposed primary endpoints were the UAS7 at Week 12 in EU and EU reference countries and the ISS7 in the US. Regardless of where a participant was from, all assessments were the same. The UAS7 score is a composite score containing both the HSS7 and the ISS7. This allowed a global assessment of the two key components of urticaria: hives and itch. […] The UAS is a validated PRO measure. […] The daily UAS scores range from 0 to 6 point/day. […] Patients were to complete the UAS using the e-diary. […] The following secondary endpoints were to be analyzed using the same approach as for the primary endpoint: • Change from baseline in UAS7 at Week 4 • Change from baseline in UAS7 at Week 12 (for US and US reference countries) • Change from baseline in ISS7 at Week 12 (except US and US reference countries) • Change from baseline in HSS7 at Week 12

[1] = outlier removed, 400 mg QPM, Week 6
[2] = outlier removed, 400 mg QPM, Week 7
[3] = outlier removed, 400 mg QPM, Week 8
[4] = outlier removed, 400 mg QPM, Week 9
[5] = outlier removed, 400 mg QPM, Week 10
[6] = outlier removed, 400 mg QPM, Week 11
[7] = outlier removed, 400 mg QPM, Week 12
[8] = outlier removed, 400 mg TID, Week 1
[9] = outlier removed, 400 mg TID, Week 2
[10] = outlier removed, 400 mg TID, Week 3
[11] = outlier removed, 400 mg TID, Week 4
[12] = outlier removed, 400 mg TID, Week 5
[13] = outlier removed, 400 mg TID, Week 6
[14] = outlier removed, 400 mg TID, Week 7
[15] = outlier removed, 400 mg TID, Week 8
[16] = outlier removed, 400 mg TID, Week 9
[17] = outlier removed, 400 mg TID, Week 10
[18] = outlier removed, 400 mg TID, Week 11
[19] = outlier removed, 400 mg TID, Week 12

## CC(C)(C=C(C#N)C(=O)N1CCC[C@@H](n2nc(-c3ccc(Oc4ccccc4)cc3F)c3c(N)ncnc32)C1)N1CCN(C2COC2)CC1 [rilzabrutinib, (R)-2-[3-[4-amino-3-(2-fluoro-4-phenoxy-phenyl)pyrazolo[3,4-d]pyrimidin-1-yl]piperidine-1-carbonyl]-4-methyl-4-[4-(oxetan-3-yl)piperazin-1-yl]pent-2-enenitrile]
[1]
  ISS7 Change difference for rilzabrutinib vs. placebo LS Mean (95% CI): −1.29 (−3.88, 1.30)
  ISS7 Change from baseline LS Mean (SE): −6.13 (0.94)
[2]
  ISS7 % Change difference for rilzabrutinib vs. placebo LS Mean (95% CI): −8.35 (−24.56, 7.86) %
  ISS7 % Change from baseline LS Mean (SE): −38.17 (5.94) %
  ISS7 Change difference for rilzabrutinib vs. placebo LS Mean (95% CI): −1.09 (−3.58, 1.41)
  ISS7 Change from baseline LS Mean (SE): −6.23 (0.91)
[3]
  ISS7 % Change difference for rilzabrutinib vs. placebo LS Mean (95% CI): −5.99 (−22.96, 10.98) %
  ISS7 % Change from baseline LS Mean (SE): −38.14 (6.20) %
  ISS7 Change difference for rilzabrutinib vs. placebo LS Mean (95% CI): −0.63 (−3.22, 1.96)
  ISS7 Change from baseline LS Mean (SE): −6.08 (0.95)
[4]
  ISS7 % Change difference for rilzabrutinib vs. placebo LS Mean (95% CI): −7.36 (−24.20, 9.48) %
  ISS7 % Change from baseline LS Mean (SE): −37.28 (6.13) %
  ISS7 Change difference for rilzabrutinib vs. placebo LS Mean (95% CI): −1.04 (−3.67, 1.58)
  ISS7 Change from baseline LS Mean (SE): −6.16 (0.95)
[5]
  ISS7 % Change difference for rilzabrutinib vs. placebo LS Mean (95% CI): −3.99 (−21.57, 13.58) %
  ISS7 % Change from baseline LS Mean (SE): −39.06 (6.40) %
  ISS7 Change difference for rilzabrutinib vs. placebo LS Mean (95% CI): −0.75 (−3.45, 1.96)
  ISS7 Change from baseline LS Mean (SE): −6.41 (0.98)
[6]
  ISS7 % Change difference for rilzabrutinib vs. placebo LS Mean (95% CI): −5.03 (−22.79, 12.72) %
  ISS7 % Change from baseline LS Mean (SE): −36.51 (6.46) %
  ISS7 Change difference for rilzabrutinib vs. placebo LS Mean (95% CI): −0.51 (−3.21, 2.18)
  ISS7 Change from baseline LS Mean (SE): −5.84 (0.98)
[7]
  ISS7 % Change difference for rilzabrutinib vs. placebo LS Mean (95% CI): 0.29 (−17.53, 18.11) %
  ISS7 % Change from baseline LS Mean (SE): −34.35 (6.52) %
  ISS7 Change difference for rilzabrutinib vs. placebo LS Mean (95% CI): 0.42 (−2.33, 3.18)
  ISS7 Change from baseline LS Mean (SE): −5.29 (1.01)
[8]
  ISS7 % Change difference for rilzabrutinib vs. placebo LS Mean (95% CI): −27.54 (−46.26, −8.82) %
  ISS7 % Change from baseline LS Mean (SE): −37.73 (5.76) %
  ISS7 Change difference for rilzabrutinib vs. placebo LS Mean (95% CI): −4.25 (−6.97, −1.53)
  ISS7 Change from baseline LS Mean (SE): −6.21 (0.84)
[9]
  ISS7 % Change difference for rilzabrutinib vs. placebo LS Mean (95% CI): −27.63 (−42.59, −12.68) %
  ISS7 % Change from baseline LS Mean (SE): −46.27 (5.57) %
  ISS7 Change difference for rilzabrutinib vs. placebo LS Mean (95% CI): −4.29 (−6.52, −2.06)
  ISS7 Change from baseline LS Mean (SE): −7.53 (0.83)
[10]
  ISS7 % Change difference for rilzabrutinib vs. placebo LS Mean (95% CI): −27.10 (−42.26, −11.94) %
  ISS7 % Change from baseline LS Mean (SE): −47.94 (5.64) %
  ISS7 Change difference for rilzabrutinib vs. placebo LS Mean (95% CI): −4.12 (−6.42, −1.83)
  ISS7 Change from baseline LS Mean (SE): −7.77 (0.85)
[11]
  ISS7 % Change difference for rilzabrutinib vs. placebo LS Mean (95% CI): −24.30 (−40.44, −8.16) %
  ISS7 % Change from baseline LS Mean (SE): −47.66 (6.02) %
  ISS7 Change from baseline LS Mean (SE): −7.78 (0.91)
[12]
  ISS7 % Change difference for rilzabrutinib vs. placebo LS Mean (95% CI): −19.54 (−35.11, −3.96) %
  ISS7 % Change from baseline LS Mean (SE): −53.59 (5.78) %
  ISS7 Change difference for rilzabrutinib vs. placebo LS Mean (95% CI): −3.21 (−5.65, −0.77)
  ISS7 Change from baseline LS Mean (SE): −8.85 (0.91)
[13]
  ISS7 % Change difference for rilzabrutinib vs. placebo LS Mean (95% CI): −23.97 (−40.79, −7.15) %
  ISS7 % Change from baseline LS Mean (SE): −52.19 (6.28) %
  ISS7 Change from baseline LS Mean (SE): −8.61 (0.98)
[14]
  ISS7 % Change difference for rilzabrutinib vs. placebo LS Mean (95% CI): −24.40 (−40.95, −7.85) %
  ISS7 % Change from baseline LS Mean (SE): −54.22 (6.16) %
  ISS7 Change difference for rilzabrutinib vs. placebo LS Mean (95% CI): −3.69 (−6.24, −1.13)
  ISS7 Change from baseline LS Mean (SE): −8.83 (0.95)
[15]
  ISS7 % Change difference for rilzabrutinib vs. placebo LS Mean (95% CI): −19.50 (−37.05, −1.95) %
  ISS7 % Change from baseline LS Mean (SE): −51.64 (6.49) %
  ISS7 Change difference for rilzabrutinib vs. placebo LS Mean (95% CI): −2.89 (−5.57, −0.21)
  ISS7 Change from baseline LS Mean (SE): −8.34 (0.99)
[16]
  ISS7 % Change difference for rilzabrutinib vs. placebo LS Mean (95% CI): −23.53 (−40.91, −6.16) %
  ISS7 % Change from baseline LS Mean (SE): −53.45 (6.52) %
  ISS7 Change difference for rilzabrutinib vs. placebo LS Mean (95% CI): −3.67 (−6.38, −0.96)
  ISS7 Change from baseline LS Mean (SE): −8.79 (1.02)
[17]
  ISS7 % Change difference for rilzabrutinib vs. placebo LS Mean (95% CI): −19.20 (−37.21, −1.20) %
  ISS7 % Change from baseline LS Mean (SE): −54.26 (6.73) %
  ISS7 Change difference for rilzabrutinib vs. placebo LS Mean (95% CI): −3.21 (−5.98, −0.44)
  ISS7 Change from baseline LS Mean (SE): −8.88 (1.04)
[18]
  ISS7 % Change difference for rilzabrutinib vs. placebo LS Mean (95% CI): −22.12 (−39.99, −4.26) %
  ISS7 % Change from baseline LS Mean (SE): −53.60 (6.61) %
  ISS7 Change difference for rilzabrutinib vs. placebo LS Mean (95% CI): −3.49 (−6.21, −0.78)
  ISS7 Change from baseline LS Mean (SE): −8.82 (1.00)
[19]
  ISS7 % Change difference for rilzabrutinib vs. placebo LS Mean (95% CI): −23.57 (−41.96, −5.17) %
  ISS7 % Change from baseline LS Mean (SE): −58.20 (6.85) %
  ISS7 Change difference for rilzabrutinib vs. placebo LS Mean (95% CI): −3.86 (−6.71, −1.02)
  ISS7 Change from baseline LS Mean (SE): −9.57 (1.06)
400 mg BID, Week 5
  ISS7 % Change difference for rilzabrutinib vs. placebo LS Mean (95% CI): −8.04 (−23.43, 7.34) %
  ISS7 % Change from baseline LS Mean (SE): −42.17 (5.73) %
  ISS7 Change difference for rilzabrutinib vs. placebo LS Mean (95% CI): −0.92
  ISS7 Change from baseline LS Mean (SE): −6.55 (0.91)
400 mg BID, Week 6
  ISS7 % Change difference for rilzabrutinib vs. placebo LS Mean (95% CI): −13.63 (−30.25, 3.00) %
  ISS7 % Change from baseline LS Mean (SE): −41.28 (6.23) %
